Assay results from patent publication US10273221B2, “Microbiocidal heterobicyclic derivatives” (Syngenta Participations AG, priority 2015, dated 2019).
Some results were stated once for a whole list of compounds, not compound by compound.

Columns and labels:
[1] = test system: Fusarium culmorum; type: in vivo; settings: 200 ppm; wheat spikelets cv. Monsun, preventative, inoculated 1 day after application, assessed 6-8 days after application
[2] = test system: Magnaporthe grisea (Pyricularia oryzae); type: in vivo; settings: 200 ppm; rice leaf segments cv. Ballila, preventative, inoculated 2 days after application, assessed 5-7 days after application

Structure (SMILES)	control of Fusarium culmorum [1]	disease control [2]
Cc1ccc2c(ncn2C2=NC(C)(C)C(F)(F)c3cc(F)ccc32)c1C [E-56]	at least 80%	
Cc1cccc2c1C(F)(F)C(C)(C)N=C2n1cnc2c(C)cccc21 [E-21]		at least 80%
Cc1ccc2c(ncn2C2=NC(C)(C)C(F)(F)c3cc(Cl)ccc32)c1C [E-49]	at least 80%	at least 80%
CC1(C)N=C(n2cnc3c(F)c(F)ccc32)c2cccc(F)c2C1(C)C [E-50]		at least 80%
Cc1cccc2c1ncn2C1=NC(C)(C)C(C)(C)c2c1ccc(F)c2F [E-46]	at least 80%	
Cc1cccc2c1ncn2C1=NC(C)(C)C(F)(F)c2c(F)cccc21 [E-20]	at least 80%	
Cc1c(Cl)ccc2c1ncn2C1=NC(C)(C)C(C)(C)c2c(F)cccc21 [E-42]		at least 80%
Cc1ccc2c(ncn2C2=NC3(CC3)C3(CC3)c3ccccc32)c1C [E-58]	at least 80%	
